Results are given in words; binding and its absence hold for the method and conditions named. Some results given as binding are weak or reduced against the parent protein; the word gives no strength.

Sequences of proteins named here, by UniProt entry; tags and fusion partners are left off.
UniProt P03372: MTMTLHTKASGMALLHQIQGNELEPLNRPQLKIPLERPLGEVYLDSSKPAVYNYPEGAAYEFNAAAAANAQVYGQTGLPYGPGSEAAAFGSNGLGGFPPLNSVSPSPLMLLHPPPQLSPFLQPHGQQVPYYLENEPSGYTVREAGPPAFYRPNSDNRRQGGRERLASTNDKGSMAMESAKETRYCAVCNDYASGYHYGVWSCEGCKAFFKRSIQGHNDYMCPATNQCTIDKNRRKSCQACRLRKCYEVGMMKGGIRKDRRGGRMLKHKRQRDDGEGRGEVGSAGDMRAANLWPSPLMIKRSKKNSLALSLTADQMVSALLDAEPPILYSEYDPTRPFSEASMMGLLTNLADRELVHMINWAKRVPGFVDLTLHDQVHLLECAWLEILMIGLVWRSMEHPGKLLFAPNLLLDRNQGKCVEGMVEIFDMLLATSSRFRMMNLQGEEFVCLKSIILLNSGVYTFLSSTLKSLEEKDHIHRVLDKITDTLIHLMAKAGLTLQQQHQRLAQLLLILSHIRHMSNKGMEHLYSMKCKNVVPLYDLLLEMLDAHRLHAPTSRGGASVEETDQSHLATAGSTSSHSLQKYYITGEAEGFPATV
UniProt Q00987: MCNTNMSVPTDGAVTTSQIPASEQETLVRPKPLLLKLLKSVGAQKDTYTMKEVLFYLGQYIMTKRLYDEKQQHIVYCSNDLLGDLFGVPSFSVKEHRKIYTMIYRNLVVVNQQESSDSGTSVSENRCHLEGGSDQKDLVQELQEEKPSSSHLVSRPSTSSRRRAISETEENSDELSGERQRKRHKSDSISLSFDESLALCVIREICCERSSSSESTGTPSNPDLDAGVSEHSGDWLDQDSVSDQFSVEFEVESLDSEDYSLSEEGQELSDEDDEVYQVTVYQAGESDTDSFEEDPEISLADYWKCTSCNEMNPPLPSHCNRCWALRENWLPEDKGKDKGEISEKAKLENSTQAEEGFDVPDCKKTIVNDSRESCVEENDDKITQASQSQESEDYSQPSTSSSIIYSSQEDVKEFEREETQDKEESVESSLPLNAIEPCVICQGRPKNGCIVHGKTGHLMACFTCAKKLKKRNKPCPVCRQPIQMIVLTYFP

Test [1] addresses estrogen receptor α (UniProt P03372). The experiment in a line: phage ELISA on immobilized ER; phage selected without estradiol.
Test [2] has the same target. The experiment in a line: phage ELISA on immobilized ER with 100 µM estradiol, estriol or antiestrogens; phage selected with estradiol. A general note: ELISA stands for enzyme-linked immunosorbent assay.
In test [3] the target is GST-human MDM2 fusion protein (human) (UniProt Q00987). The experiment in a line: phage ELISA against MDM2 and a variety of proteins.

As for SSWIRLRDLPWGESR [ER phage 3 (selected without estradiol)], the binding entry in test [1] is on record as “binds”.

With SRAGPVLWGLLSESR [ER + estradiol phage 32], in test [2], the binding result is “binds”.

For SRLEDLLRAPFTTSR [ER + estradiol phage 28], the binding result in test [2] is “binds”.

As for SSGICFFWDGCFESR [ER phage 35 (selected without estradiol)], in test [1], the binding entry was “binds”.

SSKYSYSRSSEGHSR [ER phage 29 (selected without estradiol)]: the binding result in test [1] is “binds”.

Regarding SSAGGGAPAGSTPSR [ER + estradiol phage 26], the binding entry in test [2] is reported as “binds”.

SRTWESPLGTWEWSR [ER phage 13 (selected without estradiol)]: the binding result in test [1] is recorded as “binds”.

For the molecule SRLEQLLKEEFSYSR [ER + estradiol phage 21], the binding result in test [2] is reported as “binds”.

Regarding SRLKELLLLPTDLSR [ER + estradiol phage 15], the binding entry in test [2] is “binds”.

Regarding HSHGPLTLNLLRSSGG [ER + estradiol phage 41], the binding result in test [2] was “binds”.

As for SSRLMELLQEGQGWSR [ER + estradiol phage 40], in test [2], the binding entry is given as “binds”.

Turning to SSNKLLYNLLKMESR [ER + estradiol phage 22], in test [2], the binding result is reported as “binds”.

Consider SSKTLWRLLEGERSR [ER + estradiol phage 17], for which the binding entry in test [2] was “binds”.

Turning to SSELLRWHLTRDTSR [ER + estradiol phage 8], the binding entry in test [2] is “binds”.

With SFTDYWRDLEQ, the binding entry in test [3] is “binds”.

Take SSCKWYEKCSGLWSR [ER phage 7 (selected without estradiol)]: the binding entry in test [1] was “binds”.

For GAPWNWEKKEL, in test [3], the binding entry is reported as “binds”.

On to SRLSCLLMGFEDCSR [ER + estradiol phage 36], for which, in test [2], the binding result is given as “binds”.

SSKGVLWRMLAEPVSR [ER + estradiol phage 38/39]: the binding result in test [2] is reported as “binds”.

As to PFQDYWEELLN, in test [3], the binding result is on record as “binds”.

Turning to SSWVLLRDLPWGSR [ER phage 31 (selected without estradiol)], the binding entry in test [1] is on record as “binds”.

On to MDGSGGERNSMW, for which, in test [3], the binding entry was “binds”.

SRLEQLLRSEPDFSR [ER + estradiol phage 27]: the binding entry in test [2] is “binds”.

NFWDEWQTFMD: the binding result in test [3] is on record as “binds”.

In the case of SSKSLLLNLLSTPSR [ER + estradiol phage 23], in test [2], the binding entry was “binds”.

Consider PMRTEWAVGSES, for which the binding result in test [3] is recorded as “binds”.

For the molecule SRLEMLLRSETDFSR [ER + estradiol phage 3], the binding entry in test [2] is “binds”.

As to ADPRLPVEREL, the binding entry in test [3] is “binds”.

SSRSLLRDLLMVDSR [ER + estradiol phage 6]: the binding result in test [2] is “binds”.

Regarding SRLESLLRFGQLDSR [ER + estradiol phage 29], the binding entry in test [2] is listed as “binds”.

Take SSKLIRLLTSDEELSR [ER + estradiol phage 37]: the binding result in test [2] is “binds”.

Consider PFHSWWQDLTD, for which the binding entry in test [3] is given as “binds”.

Regarding SRAGLLSDLLEGKSR [ER + estradiol phage 1/2], in test [2], the binding entry is listed as “binds”.

SRNLCFFWDDEYCSR [ER phage 41 (selected without estradiol)]: the binding result in test [1] is reported as “binds”.

SRLEYWLKWEPGPSR [ER + estradiol phage 12]: in test [2], the binding result was “binds”.

In the case of SSNSMLWKLLAAPSR [ER + estradiol phage 13/14], the binding entry in test [2] is reported as “binds”.

Regarding HHHRHPAHPHTYGG [ER phage 47 (selected without estradiol)], the binding entry in test [1] is “binds”.

SSRLLSLLVGDFNSR [ER + estradiol phage 19/20]: the binding result in test [2] is “binds”.

Consider SRLEELLLGTNRDSR [ER + estradiol phage 30], for which the binding result in test [2] is “binds”.

On to SSWDRLSDFPWGVSR [ER phage 2 (selected without estradiol)], for which, in test [1], the binding result was “binds”.

As for SRLECLLEGRLNCSR [ER + estradiol phage 34], the binding entry in test [2] is “binds”.

In the case of SSNHQSSRLIELLSR [ER + estradiol phage 4], the binding entry in test [2] is “binds”.

With SRSLLECHLMGNCSR [ER + estradiol phage 7], the binding result in test [2] is “binds”.

Take SSKLYCLLDESYCSR [ER + estradiol phage 35]: the binding result in test [2] is “binds”.

As to SRLEELLKWGSVTSR [ER + estradiol phage 11], in test [2], the binding result is reported as “binds”.

On to SSRLWQLLASTDTSR [ER + estradiol phage 16], for which the binding result in test [2] is listed as “binds”.

SRSDSILWRMLSESR [ER + estradiol phage 31]: the binding entry in test [2] is on record as “binds”.

The values are drawn from patent US20050069951A1.
